# Experimental data reported in the supplement of paper PMC8728848.
# The other results are listed elsewhere or left out.
# Legend:
# Assay in all cases: glycan array binding signal (z-score within array); higher = stronger binding
# Details in all cases: glycan notation: IUPAC condensed, linker removed
# [1] = biological target: Neu5Ac(a2-3)Gal(b1-4)[Fuc(a1-3)]GlcNAc(b1-3)GalNAc
# Method in brief: (§1)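 The binding signal is a Z-score computed within each array and averaged over linkers. Arrays of the same protein sequence at different concentrations or buffers were also averaged together. Data originate from 3228 arrays in the Consortium for Functional Glycomics database, kept only where the protein sequence was available.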
# [2] = biological target: Neu5Ac(a2-3)Gal(b1-4)[Fuc(a1-3)]GlcNAc(b1-6)[Gal(b1-3)]GalNAc
# Method in brief: as §1
# [3] = biological target: Neu5Ac(a2-3)Gal(b1-4)[Fuc(a1-3)]GlcNAc(b1-6)[Neu5Ac(a2-3)Gal(b1-3)]GalNAc
# Method in brief: as §1
# [4] = biological target: Neu5Ac(a2-3)Gal(b1-4)[Fuc(a1-3)]GlcNAc6S
# Method in brief: as §1
# [5] = biological target: Neu5Ac(a2-3)Gal6S(b1-4)GlcNAc
# Method in brief: as §1
# [6] = biological target: Neu5Ac(a2-3)Gal6S(b1-4)[Fuc(a1-3)]GlcNAc
# Method in brief: as §1
# [7] = biological target: Neu5Ac(a2-3)GalNAc
# Method in brief: as §1
# [8] = biological target: Neu5Ac(a2-3)GalNAc(b1-4)GlcNAc
# Method in brief: as §1
# [9] = biological target: Neu5Ac(a2-3)[GalNAc(b1-4)]Gal(b1-4)Glc
# Method in brief: as §1
# [10] = biological target: Neu5Ac(a2-3)[GalNAc(b1-4)]Gal(b1-4)GlcNAc
# Method in brief: as §1
# [11] = biological target: Neu5Ac(a2-3)[GalNAc(b1-4)]Gal(b1-4)GlcNAc(b1-3)GalNAc
# Method in brief: as §1
# [12] = biological target: Neu5Ac(a2-3)[Neu5Ac(a2-6)]GalNAc
# Method in brief: as §1
# [13] = biological target: Neu5Ac(a2-6)Gal
# Method in brief: as §1
# [14] = biological target: Neu5Ac(a2-6)Gal(b1-4)Glc
# Method in brief: as §1
# [15] = biological target: Neu5Ac(a2-6)Gal(b1-4)GlcNAc
# Method in brief: as §1
# [16] = biological target: Neu5Ac(a2-6)Gal(b1-4)GlcNAc(b1-2)Man(a1-3)Man(b1-4)GlcNAc(b1-4)GlcNAc
# Method in brief: as §1
# [17] = biological target: Neu5Ac(a2-6)Gal(b1-4)GlcNAc(b1-2)Man(a1-3)[Gal(b1-4)GlcNAc(b1-2)Man(a1-6)]Man(b1-4)GlcNAc(b1-4)GlcNAc
# Method in brief: as §1
# [18] = biological target: Neu5Ac(a2-6)Gal(b1-4)GlcNAc(b1-2)Man(a1-3)[GlcNAc(b1-2)Man(a1-6)]Man(b1-4)GlcNAc(b1-4)GlcNAc
# Method in brief: as §1
# [19] = biological target: Neu5Ac(a2-6)Gal(b1-4)GlcNAc(b1-2)Man(a1-3)[GlcNAc(b1-2)Man(b1-4)GlcNAc(b1-2)Man(a1-6)]Man(b1-4)GlcNAc(b1-4)GlcNAc
# Method in brief: as §1
# [20] = biological target: Neu5Ac(a2-6)Gal(b1-4)GlcNAc(b1-2)Man(a1-3)[Man(a1-6)]Man(b1-4)GlcNAc(b1-4)GlcNAc
# Method in brief: as §1
# [21] = biological target: Neu5Ac(a2-6)Gal(b1-4)GlcNAc(b1-2)Man(a1-3)[Neu5Ac(a2-6)Gal(b1-4)GlcNAc(b1-2)Man(a1-6)]Man(b1-4)GlcNAc(b1-4)GlcNAc
# Method in brief: as §1
# [22] = biological target: Neu5Ac(a2-6)Gal(b1-4)GlcNAc(b1-2)Man(a1-6)Man(b1-4)GlcNAc(b1-4)GlcNAc
# Method in brief: as §1
# [23] = biological target: Neu5Ac(a2-6)Gal(b1-4)GlcNAc(b1-2)Man(a1-6)[Gal(b1-4)GlcNAc(b1-2)Man(a1-3)]Man(b1-4)GlcNAc(b1-4)GlcNAc
# Method in brief: as §1
# [24] = biological target: Neu5Ac(a2-6)Gal(b1-4)GlcNAc(b1-2)Man(a1-6)[GlcNAc(b1-2)Man(a1-3)]Man(b1-4)GlcNAc(b1-4)GlcNAc
# Method in brief: as §1
# [25] = biological target: Neu5Ac(a2-6)Gal(b1-4)GlcNAc(b1-2)Man(a1-6)[Man(a1-3)]Man(b1-4)GlcNAc(b1-4)GlcNAc
# Method in brief: as §1
# [26] = biological target: Neu5Ac(a2-6)Gal(b1-4)GlcNAc(b1-3)Gal(b1-3)GlcNAc
# Method in brief: as §1
# [27] = biological target: Neu5Ac(a2-6)Gal(b1-4)GlcNAc(b1-3)Gal(b1-4)GlcNAc
# Method in brief: as §1
# [28] = biological target: Neu5Ac(a2-6)Gal(b1-4)GlcNAc(b1-3)Gal(b1-4)GlcNAc(b1-3)Gal(b1-4)GlcNAc
# Method in brief: as §1
# [29] = biological target: Neu5Ac(a2-6)Gal(b1-4)GlcNAc(b1-3)Gal(b1-4)[Fuc(a1-3)]GlcNAc(b1-3)Gal(b1-4)[Fuc(a1-3)]GlcNAc
# Method in brief: as §1
# [30] = biological target: Neu5Ac(a2-6)Gal(b1-4)GlcNAc(b1-3)GalNAc
# Method in brief: as §1
# [31] = biological target: Neu5Ac(a2-6)Gal(b1-4)GlcNAc6S
# Method in brief: as §1
# [32] = biological target: Neu5Ac(a2-6)GalNAc
# Method in brief: as §1
# [33] = biological target: Neu5Ac(a2-6)GalNAc(b1-4)GlcNAc
# Method in brief: as §1
# [34] = biological target: Neu5Ac(a2-6)GlcNAc(b1-4)GlcNAc
# Method in brief: as §1
# [35] = biological target: Neu5Ac(a2-6)GlcNAc(b1-4)GlcNAc(b1-4)GlcNAc
# Method in brief: as §1
# [36] = biological target: Neu5Ac(a2-8)Neu5Ac
# Method in brief: as §1
# [37] = biological target: Neu5Ac(a2-8)Neu5Ac(a2-3)Gal(b1-4)Glc
# Method in brief: as §1
# [38] = biological target: Neu5Ac(a2-8)Neu5Ac(a2-3)[GalNAc(b1-4)]Gal(b1-4)Glc
# Method in brief: as §1
# [39] = biological target: Neu5Ac(a2-8)Neu5Ac(a2-8)Neu5Ac
# Method in brief: as §1
# [40] = biological target: Neu5Ac(a2-8)Neu5Ac(a2-8)Neu5Ac(a2-3)Gal(b1-4)Glc
# Method in brief: as §1
# [41] = biological target: Neu5Ac(a2-8)Neu5Ac(a2-8)Neu5Ac(a2-3)[GalNAc(b1-4)]Gal(b1-4)Glc
# Method in brief: as §1
# [42] = biological target: Neu5Ac(a2-8)Neu5Ac(a2-8)Neu5Ac(a2-8)Neu5Ac(a2-3)[GalNAc(b1-4)]Gal(b1-4)Glc
# Method in brief: as §1
# [43] = biological target: Neu5Ac(b2-6)Gal(b1-4)GlcNAc
# Method in brief: as §1
# [44] = biological target: Neu5Ac(b2-6)GalNAc
# Method in brief: as §1
# [45] = biological target: Neu5Ac9Ac(a2-3)Gal(b1-3)GlcNAc
# Method in brief: as §1
# [46] = biological target: Neu5Ac9Ac(a2-3)Gal(b1-4)GlcNAc
# Method in brief: as §1
# [47] = biological target: Neu5Ac9Ac(a2-6)Gal(b1-4)GlcNAc
# Method in brief: as §1
# [48] = biological target: Neu5Gc(a2-3)Gal(b1-3)GlcNAc
# Method in brief: as §1
# [49] = biological target: Neu5Gc(a2-3)Gal(b1-3)[Fuc(a1-4)]GlcNAc
# Method in brief: as §1
# [50] = biological target: Neu5Gc(a2-3)Gal(b1-4)Glc
# Method in brief: as §1
# [51] = biological target: Neu5Gc(a2-3)Gal(b1-4)GlcNAc
# Method in brief: as §1
# [52] = biological target: Neu5Gc(a2-3)Gal(b1-4)[Fuc(a1-3)]GlcNAc
# Method in brief: as §1
# [53] = biological target: Neu5Gc(a2-6)Gal(b1-4)GlcNAc
# Method in brief: as §1
# [54] = biological target: Neu5Gc(a2-6)GalNAc
# Method in brief: as §1
# [55] = biological target: Neu5Gc(b2-6)Gal(b1-4)GlcNAc
# Method in brief: as §1
binder,measurement,setting,value
"PEB3 (Campylobacter jejuni), Q0PBL7 (protein) MKKIITLFGACALAFSMANADVNLYGPGGPHTALKDIANKYSEKTGVKVNVNFGPQATWFEKAKKDADILFGASDQSALAIASDFGKDFNVSKIKPLYFREAIILTQKGNPLKIKGLKDLANKKVRIVVPEGAGKSNTSGTGVWEDMIGRTQDIKTIQNFRNNIVAFVPNSGSARKLFAQDQADAWITWIDWSKSNPDIGTAVAIEKDLVVYRTFNVIAKEGASKETQDFIAYLSSKEAKEIFKKYGWRE",glycan array binding signal (z-score),[1],4.53
same,glycan array binding signal (z-score),[2],-1.17
same,glycan array binding signal (z-score),[3],1.03
same,glycan array binding signal (z-score),[4],-1.46
same,glycan array binding signal (z-score),[5],-0.268
same,glycan array binding signal (z-score),[6],-0.317
same,glycan array binding signal (z-score),[7],-1.08
same,glycan array binding signal (z-score),[8],-0.617
same,glycan array binding signal (z-score),[9],-0.446
same,glycan array binding signal (z-score),[10],-0.219
same,glycan array binding signal (z-score),[11],0.433
same,glycan array binding signal (z-score),[12],-1.9
same,glycan array binding signal (z-score),[13],1.53
same,glycan array binding signal (z-score),[14],-0.626
same,glycan array binding signal (z-score),[15],-0.802
same,glycan array binding signal (z-score),[16],1.61
same,glycan array binding signal (z-score),[17],0.395
same,glycan array binding signal (z-score),[18],-0.555
same,glycan array binding signal (z-score),[19],0.609
same,glycan array binding signal (z-score),[20],0.136
same,glycan array binding signal (z-score),[21],0.39
same,glycan array binding signal (z-score),[22],-0.233
same,glycan array binding signal (z-score),[23],-0.581
same,glycan array binding signal (z-score),[24],-0.237
same,glycan array binding signal (z-score),[25],1.2
same,glycan array binding signal (z-score),[26],-0.446
same,glycan array binding signal (z-score),[27],-0.164
same,glycan array binding signal (z-score),[28],0.854
same,glycan array binding signal (z-score),[29],0.355
same,glycan array binding signal (z-score),[30],-0.21
same,glycan array binding signal (z-score),[31],-0.285
same,glycan array binding signal (z-score),[32],-0.895
same,glycan array binding signal (z-score),[33],0.74
same,glycan array binding signal (z-score),[34],-0.895
same,glycan array binding signal (z-score),[35],-0.286
same,glycan array binding signal (z-score),[36],-0.068
same,glycan array binding signal (z-score),[37],0.455
same,glycan array binding signal (z-score),[38],-0.206
same,glycan array binding signal (z-score),[39],-0.561
same,glycan array binding signal (z-score),[40],-0.199
same,glycan array binding signal (z-score),[41],0.3
same,glycan array binding signal (z-score),[42],-0.3
same,glycan array binding signal (z-score),[43],0.531
same,glycan array binding signal (z-score),[44],-0.278
same,glycan array binding signal (z-score),[45],-0.317
same,glycan array binding signal (z-score),[46],0.586
same,glycan array binding signal (z-score),[47],-1.36
same,glycan array binding signal (z-score),[48],-0.134
same,glycan array binding signal (z-score),[49],-0.09
same,glycan array binding signal (z-score),[50],-0.736
same,glycan array binding signal (z-score),[51],-0.701
same,glycan array binding signal (z-score),[52],-1.07
same,glycan array binding signal (z-score),[53],0.649
same,glycan array binding signal (z-score),[54],-0.1
same,glycan array binding signal (z-score),[55],0.27

# Part of the list above, with tabs.
binder	measurement	setting	value
PEB3 (Campylobacter jejuni), Q0PBL7 (protein) MKKIITLFGACALAFSMANADVNLYGPGGPHTALKDIANKYSEKTGVKVNVNFGPQATWFEKAKKDADILFGASDQSALAIASDFGKDFNVSKIKPLYFREAIILTQKGNPLKIKGLKDLANKKVRIVVPEGAGKSNTSGTGVWEDMIGRTQDIKTIQNFRNNIVAFVPNSGSARKLFAQDQADAWITWIDWSKSNPDIGTAVAIEKDLVVYRTFNVIAKEGASKETQDFIAYLSSKEAKEIFKKYGWRE	glycan array binding signal (z-score)	[38]	-0.206
same	glycan array binding signal (z-score)	[39]	-0.561
same	glycan array binding signal (z-score)	[40]	-0.199
